# Some of the results follow.
# How the values were obtained:
# Assay in all cases: glycan array binding signal (z-score within array); higher = stronger binding
# Settings in all cases: glycan notation: IUPAC condensed, linker removed
# [1] = molecular target: Fuc(a1-2)Gal(b1-4)GlcNAc(b1-3)Gal(b1-4)GlcNAc(b1-3)Gal(b1-4)GlcNAc
# How it was run: (§1)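 Arrays were curated from the Consortium for Functional Glycomics database, 3228 in total, and kept only where the protein sequence was available. Binding is expressed as a within-array Z-score. This score was averaged across arrays of the same protein sequence at different concentrations or buffers and across linkers, and negative values can be read as non-binding.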
# [2] = molecular target: Fuc(a1-2)Gal(b1-4)GlcNAc(b1-3)GalNAc
# How it was run: as §1
# [3] = molecular target: Fuc(a1-2)Gal(b1-4)GlcNAc(b1-3)[Fuc(a1-2)Gal(b1-4)GlcNAc(b1-6)]GalNAc
# How it was run: as §1
# [4] = molecular target: Fuc(a1-2)Gal(b1-4)GlcNAc(b1-6)GalNAc
# How it was run: as §1
# [5] = molecular target: Fuc(a1-2)Gal(b1-4)GlcNAc6S
# How it was run: as §1
# [6] = molecular target: Fuc(a1-2)Gal(b1-4)[Fuc(a1-3)]GlcNAc
# How it was run: as §1
# [7] = molecular target: Fuc(a1-2)Gal(b1-4)[Fuc(a1-3)]GlcNAc(b1-2)Man(a1-3)[Fuc(a1-2)Gal(b1-4)[Fuc(a1-3)]GlcNAc(b1-2)Man(a1-6)]Man(b1-4)GlcNAc(b1-4)GlcNAc
# How it was run: as §1
# [8] = molecular target: Fuc(a1-2)Gal(b1-4)[Fuc(a1-3)]GlcNAc(b1-2)Man(a1-6)[Fuc(a1-2)Gal(b1-4)[Fuc(a1-3)]GlcNAc(b1-2)Man(a1-3)]Man(b1-4)GlcNAc(b1-4)[Fuc(a1-6)]GlcNAc
# How it was run: as §1
# [9] = molecular target: Fuc(a1-2)Gal(b1-4)[Fuc(a1-3)]GlcNAc(b1-2)[Fuc(a1-2)Gal(b1-4)[Fuc(a1-3)]GlcNAc(b1-4)]Man(a1-3)[Fuc(a1-2)Gal(b1-4)[Fuc(a1-3)]GlcNAc(b1-2)Man(a1-6)]Man(b1-4)GlcNAc(b1-4)GlcNAc
# How it was run: as §1
# [10] = molecular target: Fuc(a1-2)Gal(b1-4)[Fuc(a1-3)]GlcNAc(b1-3)Gal(b1-4)[Fuc(a1-3)]GlcNAc
# How it was run: as §1
# [11] = molecular target: Fuc(a1-2)Gal(b1-4)[Fuc(a1-3)]GlcNAc(b1-3)Gal(b1-4)[Fuc(a1-3)]GlcNAc(b1-3)Gal(b1-4)[Fuc(a1-3)]GlcNAc
# How it was run: as §1
# [12] = molecular target: Fuc(a1-2)Gal(b1-4)[Fuc(a1-3)]GlcNAc(b1-3)GalNAc
# How it was run: as §1
# [13] = molecular target: Fuc(a1-2)Gal(b1-4)[Fuc(a1-3)]GlcNAc(b1-3)[Neu5Ac(a2-6)Gal(b1-4)GlcNAc(b1-6)]Gal(b1-4)Glc
# How it was run: as §1
# [14] = molecular target: Fuc(a1-2)Gal6S(b1-3)GlcNAc
# How it was run: as §1
# [15] = molecular target: Fuc(a1-2)Gal6S(b1-3)GlcNAc6S
# How it was run: as §1
# Fuc(a1-2)Gal6S(b1-4)Glc = molecular target: Fuc(a1-2)Gal6S(b1-4)Glc
# How it was run: as §1
# [16] = molecular target: Fuc(a1-2)Gal6S(b1-4)Glc6S
# How it was run: as §1
# [17] = molecular target: Fuc(a1-2)Gal6S(b1-4)GlcNAc
# How it was run: as §1
# Fuc(a1-2)[Gal(a1-3)]Gal = molecular target: Fuc(a1-2)[Gal(a1-3)]Gal
# How it was run: as §1
# [18] = molecular target: Fuc(a1-2)[Gal(a1-3)]Gal(b1-3)GalNAc
# How it was run: as §1
# [19] = molecular target: Fuc(a1-2)[Gal(a1-3)]Gal(b1-3)GlcNAc
# How it was run: as §1
# [20] = molecular target: Fuc(a1-2)[Gal(a1-3)]Gal(b1-3)GlcNAc(b1-2)Man(a1-3)[Fuc(a1-2)[Gal(a1-3)]Gal(b1-3)GlcNAc(b1-2)Man(a1-6)]Man(b1-4)GlcNAc(b1-4)GlcNAc
# How it was run: as §1
# [21] = molecular target: Fuc(a1-2)[Gal(a1-3)]Gal(b1-3)GlcNAc(b1-2)Man(a1-3)[Fuc(a1-2)[Gal(a1-3)]Gal(b1-3)GlcNAc(b1-2)Man(a1-6)]Man(b1-4)GlcNAc(b1-4)[Fuc(a1-6)]GlcNAc
# How it was run: as §1
# [22] = molecular target: Fuc(a1-2)[Gal(a1-3)]Gal(b1-3)GlcNAc(b1-3)GalNAc
# How it was run: as §1
# [23] = molecular target: Fuc(a1-2)[Gal(a1-3)]Gal(b1-4)Glc
# How it was run: as §1
# [24] = molecular target: Fuc(a1-2)[Gal(a1-3)]Gal(b1-4)GlcNAc
# How it was run: as §1
# [25] = molecular target: Fuc(a1-2)[Gal(a1-3)]Gal(b1-4)GlcNAc(b1-2)Man(a1-3)[Fuc(a1-2)[Gal(a1-3)]Gal(b1-4)GlcNAc(b1-2)Man(a1-6)]Man(b1-4)GlcNAc(b1-4)GlcNAc
# How it was run: as §1
# [26] = molecular target: Fuc(a1-2)[Gal(a1-3)]Gal(b1-4)GlcNAc(b1-2)Man(a1-3)[Fuc(a1-2)[Gal(a1-3)]Gal(b1-4)GlcNAc(b1-2)Man(a1-6)]Man(b1-4)GlcNAc(b1-4)[Fuc(a1-6)]GlcNAc
# How it was run: as §1
# [27] = molecular target: Fuc(a1-2)[Gal(a1-3)]Gal(b1-4)GlcNAc(b1-3)GalNAc
# How it was run: as §1
# [28] = molecular target: Fuc(a1-2)[Gal(a1-3)]Gal(b1-4)GlcNAc(b1-6)GalNAc
# How it was run: as §1
binder,measurement,setting,value
"Latrophilin-3 (Homo sapiens), Q9HAR2 (protein) MWPSQLLIFMMLLAPIIHAFSRAPIPMAVVRRELSCESYPIELRCPGTDVIMIESANYGRTDDKICDSDPAQMENIRCYLPDAYKIMSQRCNNRTQCAVVAGPDVFPDPCPGTYKYLEVQYECVPYKVEQKVFLCPGLLKGVYQSEHLFESDHQSGAWCKDPLQASDKIYYMPWTPYRTDTLTEYSSKDDFIAGRPTTTYKLPHRVDGTGFVVYDGALFFNKERTRNIVKFDLRTRIKSGEAIIANANYHDTSPYRWGGKSDIDLAVDENGLWVIYATEQNNGKIVISQLNPYTLRIEGTWDTAYDKRSASNAFMICGILYVVKSVYEDDDNEATGNKIDYIYNTDQSKDSLVDVPFPNSYQYIAAVDYNPRDNLLYVWNNYHVVKYSLDFGPLDSRSGQAHHGQVSYISPPIHLDSELERPSVKDISTTGPLGMGSTTTSTTLRTTTLSPGRSTTPSVSGRRNRSTSTPSPAVEVLDDMTTHLPSASSQIPALEESCEAVEAREIMWFKTRQGQIAKQPCPAGTIGVSTYLCLAPDGIWDPQGPDLSNCSSPWVNHITQKLKSGETAANIARELAEQTRNHLNAGDITYSVRAMDQLVGLLDVQLRNLTPGGKDSAARSLNKAMVETVNNLLQPQALNAWRDLTTSDQLRAATMLLHTVEESAFVLADNLLKTDIVRENTDNIKLEVARLSTEGNLEDLKFPENMGHGSTIQLSANTLKQNGRNGEIRVAFVLYNNLGPYLSTENASMKLGTEALSTNHSVIVNSPVITAAINKEFSNKVYLADPVVFTVKHIKQSEENFNPNCSFWSYSKRTMTGYWSTQGCRLLTTNKTHTTCSCNHLTNFAVLMAHVEVKHSDAVHDLLLDVITWVGILLSLVCLLICIFTFCFFRGLQSDRNTIHKNLCISLFVAELLFLIGINRTDQPIACAVFAALLHFFFLAAFTWMFLEGVQLYIMLVEVFESEHSRRKYFYLVGYGMPALIVAVSAAVDYRSYGTDKVCWLRLDTYFIWSFIGPATLIIMLNVIFLGIALYKMFHHTAILKPESGCLDNIKSWVIGAIALLCLLGLTWAFGLMYINESTVIMAYLFTIFNSLQGMFIFIFHCVLQKKVRKEYGKCLRTHCCSGKSTESSIGSGKTSGSRTPGRYSTGSQSRIRRMWNDTVRKQSESSFITGDINSSASLNREGLLNNARDTSVMDTLPLNGNHGNSYSIASGEYLSNCVQIIDRGYNHNETALEKKILKELTSNYIPSYLNNHERSSEQNRNLMNKLVNNLGSGREDDAIVLDDATSFNHEESLGLELIHEESDAPLLPPRVYSTENHQPHHYTRRRIPQDHSESFFPLLTNEHTEDLQSPHRDSLYTSMPTLAGVAATESVTTSTQTEPPPAKCGDAEDVYYKSMPNLGSRNHVHQLHTYYQLGRGSSDGFIVPPNKDGTPPEGSSKGPAHLVTSL",glycan array binding signal (z-score),[1],0.659
same,glycan array binding signal (z-score),[2],-0.401
same,glycan array binding signal (z-score),[3],-0.284
same,glycan array binding signal (z-score),[4],2.91
same,glycan array binding signal (z-score),[5],0.588
same,glycan array binding signal (z-score),[6],0.567
same,glycan array binding signal (z-score),[7],1.73
same,glycan array binding signal (z-score),[8],1.49
same,glycan array binding signal (z-score),[9],2.72
same,glycan array binding signal (z-score),[10],-0.103
same,glycan array binding signal (z-score),[11],-0.076
same,glycan array binding signal (z-score),[12],4.34
same,glycan array binding signal (z-score),[13],-0.72
same,glycan array binding signal (z-score),[14],1.28
same,glycan array binding signal (z-score),[15],-0.039
same,glycan array binding signal (z-score),Fuc(a1-2)Gal6S(b1-4)Glc,0.468
same,glycan array binding signal (z-score),[16],0.592
same,glycan array binding signal (z-score),[17],-0.836
same,glycan array binding signal (z-score),Fuc(a1-2)[Gal(a1-3)]Gal,-0.058
same,glycan array binding signal (z-score),[18],0.284
same,glycan array binding signal (z-score),[19],0.076
same,glycan array binding signal (z-score),[20],-1
same,glycan array binding signal (z-score),[21],-0.721
same,glycan array binding signal (z-score),[22],0.085
same,glycan array binding signal (z-score),[23],0.962
same,glycan array binding signal (z-score),[24],1.89
same,glycan array binding signal (z-score),[25],-0.684
same,glycan array binding signal (z-score),[26],-1.1
same,glycan array binding signal (z-score),[27],0.172
same,glycan array binding signal (z-score),[28],0.384
